The text below walks through data of patent EP4748864A1, “POLYMERIZATION INITIATOR OR PHOTOSENSITIZER, POLYMERIZATION INITIATION COMPOSITION, AND METHOD FOR PRODUCING RESIN” (Miyoshi Oil & Fat Co., Ltd., priority 2023, dated 2025).

Some compounds share one wording; it may come from a single statement.

Series [1] is described as follows: Reactivity of polymerization initiator composition (1): photopolymerization at 365 nm (LED), reaction conversion by NMR. Conditions: for Reaction conversion 5 min / Reaction conversion 10 min: 0.15 g component (A), 0.15 g component (B) in 3.0 g butyl acrylate; for Reaction conversion 5 min: 5 min (500 mJ/cm^2); for Reaction conversion 10 min: 10 min (1000 mJ/cm^2); for polymerization reaction / photopolymerization, result in words: butyl acrylate.

Series [2] is described as follows: Sensitizer test: component (A) with component (C), photopolymerization at 365 nm (LED), reaction conversion by NMR. Conditions: butyl acrylate (M-1), compounding ratio as in Tables 7A-7C (% by mass); for Reaction conversion 1 min: 1 min (100 mJ/cm^2); for Reaction conversion 2 min: 2 min (200 mJ/cm^2); for Reaction conversion 3 min: 3 min (300 mJ/cm^2).

For the compound `S=C(c1ccc(-c2ccccc2)cc1)c1ccc(-c2ccccc2)cc1` [A-1, 4,4'-Diphenylthiobenzophenone], in series [1], the “Reaction conversion 5 min” value was found to be 0%; the “Reaction conversion 10 min” value is 0%; the “polymerization reaction / photopolymerization, result in words” value is reported as “did not proceed”.

Consider `CC(C)c1ccc(Sc2ccc(C(=O)c3ccc(Sc4ccc(C(C)C)cc4)cc3)cc2)cc1` [A-3, 4,4'-Bis(p-isopropylphenylthio)benzophenone], for which the “polymerization reaction / photopolymerization, result in words” value in series [1] is listed as “proceeded more efficiently”.

In the case of `CC(C)(C)c1ccc(Sc2ccc(C(=O)c3ccc(Sc4ccc(C(C)(C)C)cc4)cc3)cc2)cc1` [A-4, 4,4'-Bis(p-tert-butylphenylthio)benzophenone], the “polymerization reaction / photopolymerization, result in words” value in series [1] is listed as “proceeded more efficiently”.

For the compound `Cc1cc(C(C)(C)C)ccc1Sc1ccc(C(=O)c2ccc(Sc3ccc(C(C)(C)C)cc3C)cc2)cc1` [A-9, 4,4'-Dithio(4-tert-butyl-2-methylphenyl)benzophenone], the “polymerization reaction / photopolymerization, result in words” value in series [1] is given as “proceeded more efficiently”.

In the case of `Cc1ccc(Sc2ccc(C(=O)c3ccc(Sc4ccc(C)cc4C)cc3)cc2)c(C)c1` [A-11, 4,4'-Dithio(2,4-dimethylphenyl)benzophenone], in series [1], the “polymerization reaction / photopolymerization, result in words” value is “proceeded more efficiently”.

With `Cc1ccc(C)c(Sc2ccc(C(=O)c3ccc(Sc4cc(C)ccc4C)cc3)cc2)c1` [A-12, 4,4'-Dithio(2,5-dimethylphenyl)benzophenone], the “polymerization reaction / photopolymerization, result in words” value in series [1] is “proceeded more efficiently”.

As to `CCOC(=O)c1ccc(N(C)C)cc1` [B-1], in series [1], the “Reaction conversion 5 min” value was 0%; the “Reaction conversion 10 min” value was 0%; the “polymerization reaction / photopolymerization, result in words” value was “did not proceed”.

With `COC(OC)(C(=O)c1ccccc1)c1ccccc1` [C-1], in series [2], the “Reaction conversion 1 min” value is recorded as 54%, the “Reaction conversion 2 min” value was determined as 70% and the “Reaction conversion 3 min” value came to 72%.

As for `CCC(Cc1ccccc1)(C(=O)c1ccc(N2CCOCC2)cc1)N(C)C` (centres unmarked) [C-3], in series [2], the “Reaction conversion 1 min” value stood at 29%, the “Reaction conversion 2 min” value stood at 37% and the “Reaction conversion 3 min” value stood at 48%.

On to `CSc1ccc(C(=O)C(C)(C)N2CCOCC2)cc1` [C-4], for which, in series [2], the “Reaction conversion 1 min” value amounted to 20%, the “Reaction conversion 2 min” value worked out at 28% and the “Reaction conversion 3 min” value is on record as 30%.

With `Cc1cc(C)c(C(=O)P(=O)(C(=O)c2c(C)cc(C)cc2C)c2ccccc2)c(C)c1` [C-5], in series [2], the “Reaction conversion 1 min” value turned out to be 77%, the “Reaction conversion 2 min” value stood at 77% and the “Reaction conversion 3 min” value amounted to 93%.

Regarding `Cc1cc(C)c(C(=O)P(=O)(c2ccccc2)c2ccccc2)c(C)c1` [C-6], in series [2], the “Reaction conversion 1 min” value is on record as 55%, the “Reaction conversion 2 min” value was 63% and the “Reaction conversion 3 min” value turned out to be 78%.
